Results are given in words; binding and its absence hold for the method and conditions named. Binding seen in cells or lysates may run through a third protein. Some binding calls cover weakened binding; strength is not graded here.
Biological target: POU class 2 homeobox 2 (POU2F2) (human (endogenous in U266 and OPM-2)) (UniProt P09086)
Test: co-IP; U266 and OPM-2 cell lysates incubated overnight at 4 °C with 5 µg anti-POU2F2 (sc-377475X) or mouse IgG, protein A/G magnetic beads 2 h, four PBST washes, western blot for POU2F2, RUNX1, RUNX2, histone H3

Sequences of proteins named here, by UniProt entry; tags and fusion partners are left off.
UniProt P09086: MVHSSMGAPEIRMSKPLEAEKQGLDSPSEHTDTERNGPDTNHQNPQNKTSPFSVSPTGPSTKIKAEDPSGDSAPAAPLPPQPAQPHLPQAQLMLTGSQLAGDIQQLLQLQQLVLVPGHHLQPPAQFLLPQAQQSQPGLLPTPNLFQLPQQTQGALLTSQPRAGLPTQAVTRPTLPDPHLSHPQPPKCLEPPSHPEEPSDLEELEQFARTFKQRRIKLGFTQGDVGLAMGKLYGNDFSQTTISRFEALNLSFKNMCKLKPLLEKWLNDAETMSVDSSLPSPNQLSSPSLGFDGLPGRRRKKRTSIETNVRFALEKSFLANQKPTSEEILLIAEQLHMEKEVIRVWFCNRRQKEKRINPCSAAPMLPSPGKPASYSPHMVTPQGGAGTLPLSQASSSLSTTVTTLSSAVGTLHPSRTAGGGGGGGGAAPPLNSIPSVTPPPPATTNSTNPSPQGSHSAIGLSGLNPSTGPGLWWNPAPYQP
UniProt Q13950: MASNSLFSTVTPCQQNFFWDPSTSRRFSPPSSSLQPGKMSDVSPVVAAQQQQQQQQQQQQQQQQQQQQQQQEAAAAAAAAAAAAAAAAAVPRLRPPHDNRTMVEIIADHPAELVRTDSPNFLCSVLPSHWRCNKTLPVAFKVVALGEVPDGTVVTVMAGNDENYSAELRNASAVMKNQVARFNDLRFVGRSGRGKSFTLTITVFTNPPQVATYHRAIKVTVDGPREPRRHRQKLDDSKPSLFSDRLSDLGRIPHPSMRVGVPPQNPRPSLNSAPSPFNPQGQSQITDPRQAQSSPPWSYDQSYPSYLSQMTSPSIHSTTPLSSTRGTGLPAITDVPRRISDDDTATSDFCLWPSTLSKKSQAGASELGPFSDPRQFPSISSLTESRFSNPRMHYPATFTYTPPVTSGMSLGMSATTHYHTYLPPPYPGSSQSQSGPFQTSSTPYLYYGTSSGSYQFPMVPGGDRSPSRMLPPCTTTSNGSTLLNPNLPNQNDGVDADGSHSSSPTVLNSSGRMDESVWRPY
UniProt Q01196: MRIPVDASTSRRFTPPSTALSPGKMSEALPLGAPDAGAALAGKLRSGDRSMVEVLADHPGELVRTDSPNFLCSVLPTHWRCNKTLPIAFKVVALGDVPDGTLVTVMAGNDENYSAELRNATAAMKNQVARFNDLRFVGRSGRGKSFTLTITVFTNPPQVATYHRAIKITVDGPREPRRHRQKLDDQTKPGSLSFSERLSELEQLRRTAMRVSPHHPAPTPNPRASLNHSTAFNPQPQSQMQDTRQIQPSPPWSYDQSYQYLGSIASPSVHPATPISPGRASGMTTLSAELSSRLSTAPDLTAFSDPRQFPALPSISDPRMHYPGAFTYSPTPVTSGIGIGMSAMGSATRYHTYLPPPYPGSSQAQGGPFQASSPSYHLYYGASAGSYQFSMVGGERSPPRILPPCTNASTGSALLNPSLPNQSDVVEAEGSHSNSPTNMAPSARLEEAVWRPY

Row | Substance | binding
1 | RUNX2 (from UniProt Q13950 1-521) | binds
2 | RUNX1 (from UniProt Q01196 1-453) | binds

— paper PMC12140331
